Laboratory results from publication PMC7290032.

Chains of the proteins cited; added tags and fusions are not shown.
UniProt P27694: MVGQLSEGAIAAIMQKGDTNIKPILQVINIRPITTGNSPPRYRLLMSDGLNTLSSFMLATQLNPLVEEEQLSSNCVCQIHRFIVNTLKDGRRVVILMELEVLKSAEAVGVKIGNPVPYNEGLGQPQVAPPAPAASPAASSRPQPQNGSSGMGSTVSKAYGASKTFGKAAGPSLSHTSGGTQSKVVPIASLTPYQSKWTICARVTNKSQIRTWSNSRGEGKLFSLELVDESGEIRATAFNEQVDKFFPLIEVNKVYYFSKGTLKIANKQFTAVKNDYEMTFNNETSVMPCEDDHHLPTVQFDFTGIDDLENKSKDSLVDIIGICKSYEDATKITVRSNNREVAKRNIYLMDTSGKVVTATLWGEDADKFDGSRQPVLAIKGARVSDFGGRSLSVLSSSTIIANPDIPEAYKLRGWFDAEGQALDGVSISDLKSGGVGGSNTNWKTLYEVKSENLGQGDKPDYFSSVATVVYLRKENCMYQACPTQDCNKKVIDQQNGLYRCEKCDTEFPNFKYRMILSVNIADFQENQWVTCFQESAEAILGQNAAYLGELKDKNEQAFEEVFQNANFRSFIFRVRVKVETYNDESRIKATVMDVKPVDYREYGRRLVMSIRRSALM
UniProt P15927: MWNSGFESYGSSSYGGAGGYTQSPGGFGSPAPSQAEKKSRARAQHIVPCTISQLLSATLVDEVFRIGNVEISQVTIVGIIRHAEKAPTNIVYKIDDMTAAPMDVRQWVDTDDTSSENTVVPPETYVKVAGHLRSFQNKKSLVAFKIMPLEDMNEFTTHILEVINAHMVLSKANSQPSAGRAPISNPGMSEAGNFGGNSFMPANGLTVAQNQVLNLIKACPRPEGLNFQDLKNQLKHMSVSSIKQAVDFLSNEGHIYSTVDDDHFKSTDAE

Legend:
BirA*-MCM8IP (human) = molecular target: T1, BirA*-MCM8IP (human) (UniProt Q8N3J3); experiment: proximity labelling; BioID with mass spectrometry: BirA*-MCM8IP or MCM8IP-BirA* against BirA* alone in HU-treated HEK293T T-REx; RIPA lysis, streptavidin beads; at least 5-fold enriched
T1 sequence: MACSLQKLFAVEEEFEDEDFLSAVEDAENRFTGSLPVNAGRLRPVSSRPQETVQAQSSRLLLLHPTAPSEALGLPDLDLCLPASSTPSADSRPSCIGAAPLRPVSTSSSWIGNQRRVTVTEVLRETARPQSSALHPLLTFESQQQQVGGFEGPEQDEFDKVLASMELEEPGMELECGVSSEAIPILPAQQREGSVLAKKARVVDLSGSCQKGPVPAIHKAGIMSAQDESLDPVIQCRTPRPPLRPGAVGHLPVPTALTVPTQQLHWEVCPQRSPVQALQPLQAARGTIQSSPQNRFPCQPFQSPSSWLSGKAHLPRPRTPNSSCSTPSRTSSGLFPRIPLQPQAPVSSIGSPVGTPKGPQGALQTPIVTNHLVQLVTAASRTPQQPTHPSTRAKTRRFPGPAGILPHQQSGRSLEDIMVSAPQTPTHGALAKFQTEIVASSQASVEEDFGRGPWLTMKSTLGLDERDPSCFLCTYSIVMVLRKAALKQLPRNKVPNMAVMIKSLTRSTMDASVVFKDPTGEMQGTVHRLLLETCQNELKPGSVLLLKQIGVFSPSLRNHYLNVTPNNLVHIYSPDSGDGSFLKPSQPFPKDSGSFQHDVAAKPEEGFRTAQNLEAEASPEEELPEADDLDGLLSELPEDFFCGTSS

MCM8IP-BirA* (human) = molecular target: T2, MCM8IP-BirA* (human) (UniProt Q8N3J3); experiment: as above
T2 sequence: T1 sequence

MCM8IP-HA (human) = molecular target: T3, MCM8IP-HA (human) (UniProt Q8N3J3); experiment: affinity purification with mass spectrometry; anti-HA immunoprecipitation from HEK293T stably expressing MCM8IP-FLAG-HA against GFP-FLAG-HA; gel slices, LC-MS/MS; at least 5-fold enriched
T3 sequence: T1 sequence

Measured: binding

RPA1 (from UniProt P27694 1-616)
binds: all assays above

RPA2 (from UniProt P15927 1-270)
binds: all assays above

No constants are given. Whether binding was seen depends on the method and setting. In cells and extracts the contact can be indirect. These calls come from enrichment with a bait or labelling near it, and not all partners need be listed. For part of these data: Tags and fused reporters may be left off the sequences shown.
